Values joined by “and” are separate entries in the source; they are usually repeats but may differ in a detail not shown here. Identical values can stand only once. Counter-ions that a name gives are not always drawn. At least one read-out could not be matched to a standard name with certainty.
Legend:
Experiment in all cases: Minimum inhibitory concentration (MIC) assay, Example 33
[1] = system: Staphulococcus aureus (ATCC 29213); assay type: cell-based, Staphylococcus aureus; settings: Table 19 summary; phosphate
Procedure: (§1) Thirty compounds were tested for antimicrobial activity using standard procedures and standard strains for both the minimum inhibitory concentration (MIC) assay and a time kill study. Both the MIC assay and the time kill study were performed according to Clinical and Laboratory Standards Institute (CLSI) guidelines. Three bacteria strains, Escherichia coli (ATCC 25922), Pseudomonas aeruginosa (ATCC 27853), Staphulococcus aureus (ATCC 29213), and two fungus strains, Candida albicans (ATCC 90029) and Aspergillus niger (CMCC 98003), were used in the experiments.
(§2) Preparation of cultures. Before the experiment, two days for the bacteria strains and five days for fungus strains, an aliquot was removed from the cultures frozen at −80° C. Medium was added to the surface of an appropriate agar plate and streaked with the aliquot. The plate was incubated for 20 to 24 hrs at 35±2° C. for bacteria or for 5 days at 26-30° C. in incubator for fungus. […]
(§3) For Aspergillus niger, sporulating colonies were covered with RPMI 1640, and a suspension was prepared by gently probing the colonies with the tip of a transfer pipette. […] The MIC was read and recorded according to CLSI guidelines.
(§4) The MIC values for thirty compounds against Escherichia coli, Pseudomonas aeruginosa, Staphulococcus aureus, Candida albicans, and Aspergillus niger were recorded and are presented in Table 3 and Table 4.

[2] = system: Aspergillus niger (CMCC 98003); assay type: cell-based; settings: Table 19 summary; hydrochloride
Procedure: as §1, §2, §3, §4

[3] = system: Escherichia coli (ATCC 25922); assay type: cell-based; settings: Table 19 summary of Example 33 and Example 35; hydrochloride
Procedure: as §1, §2, §3, §4

[4] = system: Candida albicans (ATCC 90029); assay type: cell-based; settings: Table 19 summary; sulfate
Procedure: as §1, §2, §3, §4

CCCCCCCCCCCCOC(=O)C(C)N(C)C (stereo not shown) [Nex-15, Dodecyl 2-(dimethylamino)propanoate phosphate]
MIC [1]: 0.39 mg/mL and 0.2 mg/mL

CCCCCCCCCCCCOC(=O)C(C)NCCO.Cl (stereo not shown) [Nex-61, Dodecyl 2-((2-hydroxyethyl)amino)propanoate hydrochloride]
MIC [2]: 0.025 mg/mL
MIC [3]: 1.56 mg/mL

CCCCCCCCCCCCOC(=O)C(C)N(C)C (stereo not shown) [Nex-03, Dodecyl 2-(dimethylamino)propanoate sulfate]
MIC [4]: 12.5 mg/mL and 6.25 mg/mL
